# Primary screen of a compound library

Measurements from “University of Dundee, Small-Polar-MMV Screening Library” (2021), ChEMBL document CHEMBL3988442.

The filed quantity is “Percent Effect” (%).
The controls that fix the scale are not given in the record; negative values are as filed.
The compounds are a random part of those screened.

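Whole-cell growth test on Mycobacterium tuberculosis, read after 4 days in a medium based on cholesterol and the lipid DPPC; the read-out is not stated. Tested at 500 µM. The record gives no direction; compounds that gave an IC50 in retests scored well above the rest, so higher reads as more growth inhibition. Of about 18,000 compounds tested this way, about 900 (5%) reached 50% or more in at least one test.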

SMILES: CC(C)C(NC(=O)c1ccon1)c1nccn1C (stereo not given)
percent effect: 14.22%

SMILES: Cn1cc(NC(=O)CCc2ccco2)cc(Br)c1=O
percent effect: -5.744%

SMILES: NCC1CN(Cc2ccccc2)CCO1 (stereo not given)
percent effect: 11.02%

SMILES: Cc1csc(C(C)NC(=O)NCCCO)n1 (stereo not given)
percent effect: -3.539%

SMILES: O=C(NCc1ccccc1OCCO)NCC(F)(F)F
percent effect: 18.41%

SMILES: O=S1(=O)CCNCCC12CCC2
percent effect: -1.102%

SMILES: Cn1c(=O)oc2ccc(NC(=O)C3COCCN3)cc21 (stereo not given)
percent effect: -19.9%

SMILES: NCCc1ncc(F)cc1F
percent effect: 15.34%

SMILES: O=C(CSc1nnc(NCc2ccco2)s1)NC1CC1
percent effect: 13.14%

SMILES: Cc1cc(C)n(CC(=O)N(C)Cc2cc(C)on2)n1
percent effect: 3.728%

SMILES: COCC(C)Nc1ccccc1CN1C(=O)CCC1=O (stereo not given)
percent effect: 14.5%

SMILES: Cc1cc(N)nn1-c1cccc(F)c1
percent effect: 18.08%

SMILES: CCCN1CCCC(C(=O)Nc2cccc(C)n2)C1 (stereo not given)
percent effect: 4.892%

SMILES: O=C(Cc1ccc(F)cc1)NCCCn1cccn1
percent effect: 7.529%

SMILES: CCCNC(=O)Nc1cn(CC)nc1C(N)=O
percent effect: 4.198%

SMILES: CN1C(=O)C[C@H](N)[C@H]1c1cccnc1
percent effect: 6.59%

SMILES: CNS(=O)(=O)c1ccc(C(=O)NCC2(C)CCC2)o1
percent effect: 20.45%

SMILES: CN(C)C(CNC(=O)CN1CCCC1=O)c1cccs1 (stereo not given)
percent effect: -3.397%

SMILES: CCN1CCCN(C(=O)c2ccc(N(C)C)nc2)CC1
percent effect: 0.7684%

SMILES: COCCC(C)(O)C(C)(C)CN (stereo not given)
percent effect: 3.252%

SMILES: COCCN1CCN(S(=O)(=O)c2ccn(C)c2)CC1
percent effect: -5.152%

SMILES: Cc1ccoc1C(=O)N(C)Cc1nc(C(C)C)no1
percent effect: 56.35%

SMILES: COc1ccc(CN)cc1OC(F)F
percent effect: 22.22%

SMILES: NCC(=O)NCCN1CCCCCC1
percent effect: -9.488%

SMILES: NCCCc1ccc2c(c1)OCCO2
percent effect: 25.8%

SMILES: CN1CCOC[C@H]2CCN(C(=O)c3cccs3)C[C@H]21
percent effect: 5.399%

SMILES: Cc1ccc(C(=O)N(C)C)cc1Oc1ccncc1
percent effect: -12.44%

SMILES: CC(C)Cc1noc(-c2ccc(N(C)CCO)nc2)n1
percent effect: 62.32%

SMILES: CC1CN=C(N2CCN(c3ccc(C#N)cn3)CC2)S1 (stereo not given)
percent effect: -5.946%

SMILES: COCCN(Cc1ccsc1)C(=O)CC1CCNC1 (stereo not given)
percent effect: 31.65%

SMILES: CCOC(=O)c1ncsc1Cl
percent effect: 11.29%

SMILES: CC(C)[C@H]1CN(c2nccc(N)n2)C[C@@H]1N
percent effect: 10.23%

SMILES: CC(C)(C)CC(=O)N1CCCCC1CN (stereo not given)
percent effect: 7.001%

SMILES: CC(C)(N)c1ccc2c(c1)OCCO2
percent effect: 0.04645%

SMILES: CN1CCCCC1C(=O)NCCCc1ccco1 (stereo not given)
percent effect: 12.21%

SMILES: CCC(CC)C(=O)NC1CCN(C)CC1
percent effect: -5.339%

SMILES: Cc1nn(-c2ccc(F)cc2)cc1CN
percent effect: -8.498%

SMILES: OCc1cc(C(F)(F)F)on1
percent effect: -1.769%

SMILES: Cc1ncsc1C(=O)NC(C)C(C)C (stereo not given)
percent effect: 76.67%

SMILES: Cc1nn(C)c(C)c1C(C)NC(=O)CN1CCCC1 (stereo not given)
percent effect: -0.4978%

SMILES: COc1ccc(CC(=O)N(C)C)c(OC)c1OC
percent effect: -9.263%

SMILES: CC(C)(NC(=O)c1cc(-c2ccccc2)[nH]n1)C(N)=O
percent effect: 18.92%

SMILES: CC[C@H](C)[C@H](N)C(=O)NCCc1noc(C(C)C)n1
percent effect: 9.87%

SMILES: COc1ccc(CCNC2=NCCS2)cc1
percent effect: 14.86%

SMILES: N#CCCNC(=O)CN1CCC2(CC1)OCCO2
percent effect: 0.7085%

SMILES: NC(=O)NCCCN1CCc2ccccc2C1
percent effect: 5.512%

SMILES: Cn1c(CNC(=O)C2=CCCCO2)nnc1C1CCC1
percent effect: -6.719%

SMILES: Cc1noc(C)c1CN1CCCC(CNS(C)(=O)=O)C1 (stereo not given)
percent effect: 3.855%

SMILES: Cc1nccc(N2CCN(C(=O)C3CC=CC3)CC2)n1
percent effect: 10.89%

SMILES: CNC(=O)CCN1C[C@H](c2ccc(OC)cc2)[C@@H](N)C1
percent effect: -3.113%

SMILES: CCSc1nnc(CN)n1C
percent effect: -11.8%

SMILES: CCC(NC(=O)COc1cccnc1)c1ccnn1C (stereo not given)
percent effect: -11.82%

SMILES: CC1(C)CN(C(=O)c2ncncc2Cl)CC[S+]1[O-] (stereo not given)
percent effect: -20.93%

SMILES: N#Cc1cccc(CSc2nnc(N)s2)c1
percent effect: 35.77%

The first 4 entries again:

{"smiles": "CC(C)C(NC(=O)c1ccon1)c1nccn1C", "stereo": "stereo not given", "percent effect": 14.22}
{"smiles": "Cn1cc(NC(=O)CCc2ccco2)cc(Br)c1=O", "percent effect": -5.744}
{"smiles": "NCC1CN(Cc2ccccc2)CCO1", "stereo": "stereo not given", "percent effect": 11.02}
{"smiles": "Cc1csc(C(C)NC(=O)NCCCO)n1", "stereo": "stereo not given", "percent effect": -3.539}